In article doi:10.1101/2021.04.08.438850:
Where two headings read alike, the source gives them in different places. These are yes or no findings as the source states them, for the method shown. Binding seen in cells or lysates may run through a third protein. A result given as binding can be weak or reduced; the word gives no strength. Sequences can lack the tags named with a protein.

B1: Pof8, myc-tagged (protein, UniProt O13795 1-402)
chain: MFVPRQLNVRKIKAFTGKENNSIADGNNNKLKDEHYKHNEASKEPSHSISGGLMLNQQDRQLIEPLNPDFLSAVDSILEIYFHRERQKEKVHLAFLIQQDDFWKGIRPNPTQNNLKYALSYVTNALFHFDNSSHMVIRNENIVLPLDIPLYDRIIYVEPVPATLSNKSLLLAGKLRKYLKEFLPYVDAIGTPEGYAFVILYKKVDQSALSKLPVPPGWVLLTRKEWTNREEKYFENQLHLVKASSSDVSNSSNSFPENRYPKLTKVEKQMTKSVSKTSQTDKDEDNLDFTKNLLTRIKNLHPLTNKSTIHSLLSYVFSRQTQNIACEPMYIDYRKDETEAIIRWKTPLHAETCINAFRTQERKQNSHDDIRAHRKKGSSRPFLIAELITGEEEKNYWRMLKK

Tests used:
Experiment in all cases: co-IP
[1] = biological target: T1, Pof8, myc-tagged (S. pombe) (UniProt O13795)
T1 sequence: B1 chain

[2] = biological target: Bin3 (methyl phosphate capping enzyme homolog), protein A-tagged (S. pombe)
[3] = biological target: Bin3 (methyl phosphate capping enzyme homolog), protein A-tagged (S. pombe); remark: listed apart in the source

| Molecule | binding [1] | binding [2] | binding [3] |
| --- | --- | --- | --- |
| Bin3 (methyl phosphate capping enzyme homolog), protein A-tagged (S. pombe) | binds |  |  |
| B1 |  | binds | binds |
